Measurements reported in PMC7819943, “Rice protein-binding microarrays: a tool to detect cis-acting elements near promoter regions in rice”.
This is one part of the list.

Sequences of proteins named here, by UniProt entry; tags and fusion partners are left off.
UniProt Q0JBA9, entry or part of it: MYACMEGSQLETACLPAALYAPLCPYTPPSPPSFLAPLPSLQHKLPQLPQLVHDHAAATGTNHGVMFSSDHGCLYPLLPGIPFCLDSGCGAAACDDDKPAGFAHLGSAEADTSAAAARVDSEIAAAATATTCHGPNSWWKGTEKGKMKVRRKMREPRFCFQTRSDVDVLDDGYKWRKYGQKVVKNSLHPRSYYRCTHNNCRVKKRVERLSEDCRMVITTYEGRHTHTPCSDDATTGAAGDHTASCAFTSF

Target: OsWRKY34 (Oryza sativa, UniProt Q0JBA9 1-250)
Assay: protein-binding microarray (RPBM); PBS, 2% BSA, 51.3 ng/ul salmon testes DNA, 50 uM zinc acetate, 200 nM TF, 25 C, 1 h; high values mean tight binding
Conditions: protein: recombinant; tags: N-terminal polyhistidine and DsRed monomer fusion (pET32a); label: CyDye5-dUTP incorporated in the synthesized complementary strand; 3' TTTTT single-stranded linker to array surface; dsDNA, one strand shown
Summary of the method: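 Binding signal here means per-feature fluorescence intensity in arbitrary units. The values were read on an Axon 4000B scanner after a custom Agilent array, double-stranded by primer extension with Cy5-dUTP, was incubated with 200 nM protein at 25 °C for 1 h in PBS with 2% BSA, salmon testes DNA and 50 µM zinc acetate, then washed. The proteins were transcription factors with an N-terminal polyhistidine tag and DsRed, expressed in E. coli BL21-CodonPlus and purified on Ni–NTA.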

| Sequence | binding signal |
| --- | --- |
| ATTTTGCTACCATTGGTGTTGTATTTGATTTATTTAGTGTCGGAGTCACCTAGTGCAG | 9800 fluorescence intensity (a.u.) |
| GTAAGTGTGTGTTCAGTGATGGCTATCGGTGGGTGGGTGGCGGAGTCACCTAGTGCAG | 16600 fluorescence intensity (a.u.) |
| TGCAACCTGGTGTGTTCGGTAACGAGGGATGGGTAGTAAGCGGAGTCACCTAGTGCAG | 8120 fluorescence intensity (a.u.) |
| CATTGTTCATCCACTGTGGCTCATTTTCCTATGTTCCATCCGGAGTCACCTAGTGCAG | 13300 fluorescence intensity (a.u.) |
| TGTTTCATAAAAGTTTTAAATGTTTCAGCTGCTGTTTTTTCGGAGTCACCTAGTGCAG | 8790 fluorescence intensity (a.u.) |
| CCCACGCATCGCCATGGACCATCTTCTCCGGCTCAGATCCCGGAGTCACCTAGTGCAG | 8150 fluorescence intensity (a.u.) |
| AATTGCATGTTCTTGATTGGTCTGTGGTTGTGATCCGTCCCGGAGTCACCTAGTGCAG | 8780 fluorescence intensity (a.u.) |
| GATCATTTGTCTTTCCCCTTAACTTCATATTGGGAAGTTGCGGAGTCACCTAGTGCAG | 8130 fluorescence intensity (a.u.) |
| GATAGCAAAATGGCCATGTCAATCTGATTGTTCATGACAACGGAGTCACCTAGTGCAG | 8190 fluorescence intensity (a.u.) |
| CATCCACTGATCCGGCCGGCGATATCACCTCCATCCATCCCGGAGTCACCTAGTGCAG | 9820 fluorescence intensity (a.u.) |
| TGTGCGTCGTGTGCGTTCTGTTAGTTTGATTGAGTCGTGACGGAGTCACCTAGTGCAG | 10800 fluorescence intensity (a.u.) |
| AGAGAACCCCGTCTTCTCGCTGTCCTCGCATCCACTCCTGCGGAGTCACCTAGTGCAG | 8900 fluorescence intensity (a.u.) |
| AACACGGCCGCCCTCGCCACGTCTTCCACCTCCAGCGATGCGGAGTCACCTAGTGCAG | 8540 fluorescence intensity (a.u.) |
| GCCAGTATCTCCTCTTCCTTCTCGACAGTTGTGTCCTCTCCGGAGTCACCTAGTGCAG | 8580 fluorescence intensity (a.u.) |
| GCTGAACCCAACCCACCACGTTGGCCGCCCACGCCGCGACCGGAGTCACCTAGTGCAG | 10300 fluorescence intensity (a.u.) |
| CTCCATAGGGCTTGGGGACATCTAACTCCTTACCACTTTTCGGAGTCACCTAGTGCAG | 11000 fluorescence intensity (a.u.) |
| TTATGATTTTTGACATATTTGTCTCTCTTTTTTGTTATTTCGGAGTCACCTAGTGCAG | 8300 fluorescence intensity (a.u.) |
| CCCATGTCGTTGTCCCGCTCCTGCAAGAGATACACCTATGCGGAGTCACCTAGTGCAG | 8490 fluorescence intensity (a.u.) |
| GGTGGCACAGTTGCGGCGCTGCTCTCTTTCCGCTTCTACCCGGAGTCACCTAGTGCAG | 8690 fluorescence intensity (a.u.) |
| CTAAATCTCTCGTCGGCCCATCACACTAAGCAAAGAAGCCCGGAGTCACCTAGTGCAG | 8080 fluorescence intensity (a.u.) |
| AATTCACTTTATATTTCAACACACTCCTTCACGCCTCCTTCGGAGTCACCTAGTGCAG | 8060 fluorescence intensity (a.u.) |

Quoted at random: two entries already listed, in no set order.

| Sequence | binding signal |
| --- | --- |
| AGAGAACCCCGTCTTCTCGCTGTCCTCGCATCCACTCCTGCGGAGTCACCTAGTGCAG | 8900 fluorescence intensity (a.u.) |
| GATAGCAAAATGGCCATGTCAATCTGATTGTTCATGACAACGGAGTCACCTAGTGCAG | 8190 fluorescence intensity (a.u.) |

Following part.

| Sequence | binding signal |
| --- | --- |
| TTATTTTCTTTAGTCCGGCTGTGCCTTTGGTTTAGAACATCGGAGTCACCTAGTGCAG | 8120 fluorescence intensity (a.u.) |
| TATTCCATTATCTTCAGGTGAATTGCCTGTACTTTGTCTTCGGAGTCACCTAGTGCAG | 8360 fluorescence intensity (a.u.) |
| TCCTTTCCGCCACTCGCCGCCGCCGCCGCCGCCGGGGCGGCGGAGTCACCTAGTGCAG | 9120 fluorescence intensity (a.u.) |
| CTAATGCTTCATGGAATACGCAGCCTACTGATAGTTTTTTCGGAGTCACCTAGTGCAG | 9860 fluorescence intensity (a.u.) |
| TTTCGCCTAAACCCTAGCCGTCCACACCCCACCACCACCGCGGAGTCACCTAGTGCAG | 9410 fluorescence intensity (a.u.) |
| GATACCCAGACTGTTTGCAATCCCAAAGCACATCTTAAATCGGAGTCACCTAGTGCAG | 9220 fluorescence intensity (a.u.) |
| GGAGCGCGGGAGGCGGGGAGCTTAGTTTGAGCTCGGTCGGCGGAGTCACCTAGTGCAG | 8840 fluorescence intensity (a.u.) |
| TGTTACAGTCGATTTTTTTTCAGCCACTTACACAGTAGTTCGGAGTCACCTAGTGCAG | 10600 fluorescence intensity (a.u.) |
| CGCGACTTCTTGCTTTTCCGCCCTCGCCACCACATCGACACGGAGTCACCTAGTGCAG | 11100 fluorescence intensity (a.u.) |
| TGTGTTTCTACCTGCCTGACAAAGTGACCACCATCATGGTCGGAGTCACCTAGTGCAG | 8990 fluorescence intensity (a.u.) |
| AGTTTGCTGTTTCGGTCGGATTAATCCATTCCACTTTACTCGGAGTCACCTAGTGCAG | 11800 fluorescence intensity (a.u.) |
| GGCTAGGATCCGTCGCTAACCCACTATATATCCAAACCTCCGGAGTCACCTAGTGCAG | 9430 fluorescence intensity (a.u.) |
| ACCGCCGCCGTTCACCGTTCCGCCCGTCCACCTACCTCGTCGGAGTCACCTAGTGCAG | 8080 fluorescence intensity (a.u.) |
| GAGAGGGGTTGGGAACATAGGATTGCAAACACAGCCTTAGCGGAGTCACCTAGTGCAG | 9780 fluorescence intensity (a.u.) |
| AGTCAGTGCTTCATTCAACATACCATTTTACATTTCTTTCCGGAGTCACCTAGTGCAG | 11300 fluorescence intensity (a.u.) |
| AGATATGATCACCGGTCTTTACCATTACATAGTTTTTGTCCGGAGTCACCTAGTGCAG | 9560 fluorescence intensity (a.u.) |
| GCCAAATTGACTTGGTTGGGGTTCGTGAATGTCGTTGCATCGGAGTCACCTAGTGCAG | 9030 fluorescence intensity (a.u.) |
| CTGTAACTTTGCAAACGAGACCCTATTTGGATCTTTATTACGGAGTCACCTAGTGCAG | 10100 fluorescence intensity (a.u.) |
| GATCCTCTGTTTTATCTACGCGTTCCTATCAAATTCCTTTCGGAGTCACCTAGTGCAG | 16800 fluorescence intensity (a.u.) |
| ATCCCGTAGATCTCGTCATCTACACCACGCTATTCGTATCCGGAGTCACCTAGTGCAG | 11600 fluorescence intensity (a.u.) |
| TTATTTACTCCAGGCGGTTTTTTTTCCTTCTTATTCTGTTCGGAGTCACCTAGTGCAG | 10900 fluorescence intensity (a.u.) |
